# Source: USRE32992E, “Peptide process for preparation thereof and use thereof” (priority 1978, dated 1989)
# At least one peptide structure holds a part that was inferred or is arguable (an end, a ring closure or a residue).
# Legend:
# [1] = test system: ovalbumin; experiment: Enhancing activity of cellular immunity: skin reaction to ovalbumin; type: in vivo, Guinea pigs; settings: skin test day 14, read at 48 hours
# [2] = test system: reticuloendotherial system; experiment: Blood stream clearance of carbon; type: in vivo, Mice (DDY male 5-6 W); settings: dose 100 mg/kg subcutaneously, carbon clearance 24 hours later
# Method: 1. Carbon suspension. Rotoring drawing ink (170 mg carbon/ml.) was diluted to 1/5 of the original concentration in saline containing 1% gelatin.
# 2. 0.1% aqueous sodium carbonate solution.
# Mice (DDY male 5-6 W) were injected via the tail vein with a dose of 0.01 ml/g body weight of carbon. Blood samples were taken by means of a pointed capillary pippet calibrated to hold a 50 μl and previously washed in heparin. This was plunged into the retrooribital venous sinus at the nasal angle of the eye. The samples were removed at 3 and to 6 min.
# The blood was immediately discharged into 3.0 ml. of the sodium carbonate solution. This hemolyszed the blood and allowed the quantitation of carbon. The samples were then read in a spectrophotometer at 660 nm, the log concentration being obtained from a previously determined standard curve. The clearance value K may be determined by plotting log carbon concentration against time according to the following relationship; [formula] in which T1 and T2 represent the time in min when the sample were withdrawn and C1 and C2 represent the concentrations of carbon in the blood at the time T1 and T2, respectively.
# The aqueous solution of the test compound as given was administered subcutaneously to mice. Twenty four hours later, blood stream clearance of carbon was measured. K value obtained with treated mice was compared with that of control mice.
SMILES,"Cellular immunity skin reaction (mm diameter, M ± S.E.) ([1]; dose 1 μg/site with ovalbumin in FIA) [mm]","Cellular immunity skin reaction (mm diameter, M ± S.E.) ([1]; dose 10 μg/site with ovalbumin in FIA) [mm]",Ktreated/Kcontrol [2]
CC(=O)N[C@H](CCC(=O)N[C@@H](CCC[C@@H](N)C(=O)O)C(=O)NCC(=O)O)C(=O)O [CH3 CO; n=0],6.4 ± 2.1,8.7 ± 1.0,–
N[C@H](CCC[C@H](NC(=O)CC[C@@H](N)C(=O)O)C(=O)NCC(=O)O)C(=O)O [H; n=0; Ra2=CH2 COOH],–,–,1.8
